Experimental data published in publication doi:10.1101/2023.10.07.561349.
These are yes or no findings as the source states them, for the method shown. Binding seen in cells or lysates may run through a third protein. Some entries that bind do so weakly or less than the wild type.

Amino acid sequences for entries named in this document (tags omitted).
UniProt P08047: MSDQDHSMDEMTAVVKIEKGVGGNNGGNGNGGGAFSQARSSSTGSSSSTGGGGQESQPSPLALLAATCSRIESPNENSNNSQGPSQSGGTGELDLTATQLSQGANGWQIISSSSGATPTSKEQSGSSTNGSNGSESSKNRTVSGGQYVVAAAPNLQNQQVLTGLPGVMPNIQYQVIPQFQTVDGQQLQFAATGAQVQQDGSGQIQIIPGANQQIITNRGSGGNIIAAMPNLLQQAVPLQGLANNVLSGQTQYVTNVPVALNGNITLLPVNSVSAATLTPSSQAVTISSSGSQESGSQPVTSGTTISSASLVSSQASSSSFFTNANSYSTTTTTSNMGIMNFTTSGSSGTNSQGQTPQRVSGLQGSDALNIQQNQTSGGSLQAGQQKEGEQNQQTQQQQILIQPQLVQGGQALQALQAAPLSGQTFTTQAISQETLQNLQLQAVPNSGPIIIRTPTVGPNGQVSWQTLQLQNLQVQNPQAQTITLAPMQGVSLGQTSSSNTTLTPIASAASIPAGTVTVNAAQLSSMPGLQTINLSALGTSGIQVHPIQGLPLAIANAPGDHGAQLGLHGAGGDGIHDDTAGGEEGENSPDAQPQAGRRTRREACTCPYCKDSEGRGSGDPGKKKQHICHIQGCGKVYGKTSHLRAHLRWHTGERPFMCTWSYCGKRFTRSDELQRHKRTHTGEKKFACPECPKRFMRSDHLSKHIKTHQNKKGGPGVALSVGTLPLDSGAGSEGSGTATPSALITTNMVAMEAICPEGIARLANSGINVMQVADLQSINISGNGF
UniProt P84022: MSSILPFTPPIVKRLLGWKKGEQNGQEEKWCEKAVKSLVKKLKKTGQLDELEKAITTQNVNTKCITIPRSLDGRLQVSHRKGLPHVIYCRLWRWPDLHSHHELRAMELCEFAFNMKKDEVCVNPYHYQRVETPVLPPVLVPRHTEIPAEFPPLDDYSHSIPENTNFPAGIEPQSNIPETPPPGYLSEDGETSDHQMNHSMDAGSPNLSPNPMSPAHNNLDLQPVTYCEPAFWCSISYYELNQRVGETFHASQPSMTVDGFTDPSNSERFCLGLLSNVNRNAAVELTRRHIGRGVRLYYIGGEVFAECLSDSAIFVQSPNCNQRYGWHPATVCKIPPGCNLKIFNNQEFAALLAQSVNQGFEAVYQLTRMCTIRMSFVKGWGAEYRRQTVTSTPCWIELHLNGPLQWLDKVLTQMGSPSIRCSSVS

Biological target: SP1 (human (endogenous in THP-1)) (UniProt P08047)
Assay: proximity ligation

- binding: binds
Substance: SMAD3 (from UniProt P84022 1-425)
